# These are yes or no findings as the source states them, for the method shown. Some entries that bind do so weakly or less than the wild type. Tags and fused reporters may be left off the sequences shown.
# Chains of the proteins cited; added tags and fusions are not shown.
# UniProt Q94AH6: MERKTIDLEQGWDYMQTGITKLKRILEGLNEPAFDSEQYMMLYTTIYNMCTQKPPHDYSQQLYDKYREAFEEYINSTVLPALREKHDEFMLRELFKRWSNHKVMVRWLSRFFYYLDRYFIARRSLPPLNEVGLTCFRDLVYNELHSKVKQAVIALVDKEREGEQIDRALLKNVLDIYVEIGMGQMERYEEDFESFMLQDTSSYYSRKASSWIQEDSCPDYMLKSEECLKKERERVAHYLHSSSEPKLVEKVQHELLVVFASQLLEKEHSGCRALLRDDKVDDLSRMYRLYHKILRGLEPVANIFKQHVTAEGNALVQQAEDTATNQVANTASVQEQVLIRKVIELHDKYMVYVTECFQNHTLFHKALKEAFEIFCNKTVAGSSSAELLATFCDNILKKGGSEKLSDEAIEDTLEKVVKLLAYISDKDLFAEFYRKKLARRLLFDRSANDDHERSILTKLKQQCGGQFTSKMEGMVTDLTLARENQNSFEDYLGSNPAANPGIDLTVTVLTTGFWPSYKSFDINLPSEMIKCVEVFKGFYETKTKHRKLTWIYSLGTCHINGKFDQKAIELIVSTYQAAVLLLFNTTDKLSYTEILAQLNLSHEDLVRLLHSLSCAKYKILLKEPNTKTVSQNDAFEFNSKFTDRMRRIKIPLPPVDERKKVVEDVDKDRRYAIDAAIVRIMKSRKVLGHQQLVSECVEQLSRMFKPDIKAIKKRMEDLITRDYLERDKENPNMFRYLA
# Biological target: T1, TRANSPORT INHIBITOR RESPONSE 1 (TIR1), Gal4 DNA-binding domain fusion for yeast two-hybrid (Arabidopsis thaliana) (UniProt Q570C0)
# T1 sequence: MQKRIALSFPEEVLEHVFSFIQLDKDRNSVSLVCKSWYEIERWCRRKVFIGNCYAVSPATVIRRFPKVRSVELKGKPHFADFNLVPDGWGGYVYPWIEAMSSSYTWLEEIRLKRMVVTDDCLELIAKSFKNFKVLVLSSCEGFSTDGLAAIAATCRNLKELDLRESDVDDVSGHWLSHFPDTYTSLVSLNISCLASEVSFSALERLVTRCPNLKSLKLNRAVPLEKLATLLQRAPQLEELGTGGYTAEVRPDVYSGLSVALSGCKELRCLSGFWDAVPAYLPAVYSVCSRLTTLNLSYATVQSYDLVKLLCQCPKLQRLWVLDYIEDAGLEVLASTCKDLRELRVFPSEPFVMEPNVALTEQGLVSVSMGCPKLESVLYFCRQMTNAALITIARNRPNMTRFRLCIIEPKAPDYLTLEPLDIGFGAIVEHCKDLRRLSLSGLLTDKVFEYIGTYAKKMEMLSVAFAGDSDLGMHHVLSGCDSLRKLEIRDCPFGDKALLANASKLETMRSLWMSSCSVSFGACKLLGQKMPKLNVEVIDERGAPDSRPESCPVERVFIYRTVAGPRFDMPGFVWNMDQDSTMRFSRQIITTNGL
# Test: two-hybrid
substance,measurement,value
"Cullin1 (CUL1), Gal4 activation domain fusion for yeast two-hybrid (from UniProt Q94AH6 1-738)",binding,binds

# Source: paper doi:10.1101/2023.01.05.522749
